Patent publication US20250074980A1 (BRIGHAM AND WOMEN S HOSPITAL, published 2025)
Results are given in words; binding and its absence hold for the method and conditions named. Some entries that bind do so weakly or less than the wild type.

What was measured:
[1] = target: T1, CEACAM1 on transfected HeLa cells (human, UniProt P13688 35-526); assay: flow cytometry, HeLa-CEACAM1 transfectants, % staining, stacked bars
T1 construct: also called HeLa-CEACAM1; HeLa C1
T1 sequence: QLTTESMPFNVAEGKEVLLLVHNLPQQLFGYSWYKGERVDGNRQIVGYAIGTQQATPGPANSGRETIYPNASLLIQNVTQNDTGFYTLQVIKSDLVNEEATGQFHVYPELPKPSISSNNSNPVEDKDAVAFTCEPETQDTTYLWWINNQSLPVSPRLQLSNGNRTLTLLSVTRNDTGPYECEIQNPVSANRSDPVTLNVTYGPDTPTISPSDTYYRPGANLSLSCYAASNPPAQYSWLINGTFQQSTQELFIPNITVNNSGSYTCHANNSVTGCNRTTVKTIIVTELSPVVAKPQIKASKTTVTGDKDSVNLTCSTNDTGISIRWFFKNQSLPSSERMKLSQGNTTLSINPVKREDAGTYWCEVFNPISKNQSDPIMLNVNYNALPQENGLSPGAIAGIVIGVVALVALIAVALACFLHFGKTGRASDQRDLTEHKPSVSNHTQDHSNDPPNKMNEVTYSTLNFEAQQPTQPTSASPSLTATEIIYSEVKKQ

CEACAM-1 (Homo sapiens) = CEACAM-1 (Homo sapiens) (UniProt P13688); assay: three-point binding ELISA on coated CEACAM-1, anti-human kappa chain antibody and TMB
His-tagged CEACAM1 [2] = target: T2, His-tagged CEACAM1 (human, UniProt P13688 35-428); assay: SPR and ELISA (FIGS. 12A-12C)
T2 construct: 45 kDa SPR analyte; also called CEACAM1-HIS; CEACAM1 analyte
T2 sequence: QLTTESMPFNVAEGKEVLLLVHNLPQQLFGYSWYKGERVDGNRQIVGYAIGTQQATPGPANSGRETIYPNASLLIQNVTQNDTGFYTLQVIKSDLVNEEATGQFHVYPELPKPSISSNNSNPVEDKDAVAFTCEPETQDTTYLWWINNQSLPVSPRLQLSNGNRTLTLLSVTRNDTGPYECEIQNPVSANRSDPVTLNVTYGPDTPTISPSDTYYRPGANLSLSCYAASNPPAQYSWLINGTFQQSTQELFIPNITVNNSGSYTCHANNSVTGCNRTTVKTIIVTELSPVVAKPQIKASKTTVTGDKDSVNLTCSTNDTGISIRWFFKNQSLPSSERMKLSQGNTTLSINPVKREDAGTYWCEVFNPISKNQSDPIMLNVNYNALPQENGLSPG

His-tagged CEACAM1 [3] = target: T2, His-tagged CEACAM1; assay: SPR single-cycle kinetics, antibody captured on Protein A, CEACAM-1 injected at three rising concentrations
[4] = target: T1, CEACAM1 on transfected HeLa cells; assay: flow cytometry titration, HeLa-CEACAM1 transfectants, anti-human IgG4 FITC
[5] = target: T1, CEACAM1 on transfected HeLa cells; assay: flow cytometry, transfected HeLa
[6] = target: T1, CEACAM1 on transfected HeLa cells; assay: flow cytometry contour plots, HeLa-CEACAM1 transfectants, anti-human IgG4 FITC
[7] = target: T1, CEACAM1 on transfected HeLa cells; assay: flow cytometry, HeLa-CEACAM1 transfectants, % positive cells
[8] = target: FLAG-tagged CEACAM1 (human) (UniProt P13688); assay: immunoblot of wild-type CEACAM1-FLAG from transfected cells, detected with the antibody
[9] = target: FLAG-tagged CEACAM1 (human) (UniProt P13688); assay: Western blot of FLAG-tagged CEACAM1
GST-CEACAM1 [10] = target: T3, GST-CEACAM1 (human, UniProt P13688 35-141, limits assumed); assay: phage ELISA on GST-CEACAM1
T3 construct: also called human CEACAM1-GST protein
T3 sequence: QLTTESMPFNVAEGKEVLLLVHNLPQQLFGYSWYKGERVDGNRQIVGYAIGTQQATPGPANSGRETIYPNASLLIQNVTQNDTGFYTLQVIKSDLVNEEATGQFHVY

GST-CEACAM1 [11] = target: T3, GST-CEACAM1; assay: phage ELISA on plate-bound GST-CEACAM1, anti-M13-HRP and TMB
[12] = target: tagless CEACAM1 expressed in E. coli (crystallised) (human) (UniProt P13688); assay: crystal structure of the complex, 3.3 Å

Measured: binding

B1: CP08H03/CP08F05 (antibody, V domains shown)
VH: EVQLLESGGGLVQPGGSLRLSCAASGFIFSSHGMSWVRQAPGKGLEWVATISSGGTYTYYPDSVKGRFTISRDNSKNTLYLQMNSLKAEDTAMYYCARHDFDYFPYWFAHWGQGTLVTVSS
VL: EIVLTQSPATLSLSPGERATLSCRANSAVSYMYWYQQKPGQAPRPWIYLTSNRATGVPARFSGSGSGTDYTLTISSLEPEDFAVYYCQQWTSNPPTFGQGTKLEIK
notes: IgG4 (S241P), kappa
binds: [1] | CEACAM-1 (Homo sapiens) | His-tagged CEACAM1 [2] | His-tagged CEACAM1 [3]

B2: CP08H03/Vκ8 S29A (antibody, IgG4, V domains shown)
VH: EVQLLESGGGLVQPGGSLRLSCAASGFIFSSHGMSWVRQAPGKGLEWVATISSGGTYTYYPDSVKGRFTISRDNSKNTLYLQMNSLKAEDTAMYYCARHDFDYFPYWFAHWGQGTLVTVSS
VL: EIVLTQSPATLSLSPGERATLSCRANSAVSYMYWYQQKPGQAPRPWIYLTSNRATGVPARFSGSGSGTDYTLTISSLEPEDFAVYYCQQWSSNPPTFGQGTKLEIK
notes: IgG4 (S241P), kappa; also called CP08_H03/Parent VL; CP08_H03/Parental
binds: [4] | [1] | CEACAM-1 (Homo sapiens) | His-tagged CEACAM1 [2] | [5] | His-tagged CEACAM1 [3] | [6]

B3: CP09C02/CP08E05 (antibody, IgG4, V domains shown)
VH: EVQLLESGGGLVQPGGSLRLSCAASEFTFSDHAMSWVRQAPGKGLEWVATISSGGTYTYYPDSVKGRFTISRDNSKNTLYLQMNSLKAEDTAMYYCARHGFDYDAAWFAYWGQGTLVTVSS
VL: EIVLTQSPATLSLSPGERATLSCRANSAVSYMYWYQQKPGQAPRPWIYLTSNRATGVPARFSGSGSGTDYTLTISSLEPEDFAVYYCQQWTTNPPTFGQGTKLEIK
notes: IgG4 (S241P), kappa
binds: [1]

B4: CP09C02/CP08F05 (antibody, IgG4, V domains shown)
VH: EVQLLESGGGLVQPGGSLRLSCAASEFTFSDHAMSWVRQAPGKGLEWVATISSGGTYTYYPDSVKGRFTISRDNSKNTLYLQMNSLKAEDTAMYYCARHGFDYDAAWFAYWGQGTLVTVSS
VL: EIVLTQSPATLSLSPGERATLSCRANSAVSYMYWYQQKPGQAPRPWIYLTSNRATGVPARFSGSGSGTDYTLTISSLEPEDFAVYYCQQWTSNPPTFGQGTKLEIK
notes: IgG4 (S241P), kappa
binds: [1]

B5: VH1/Vκ8 (antibody, IgG4, V domains shown)
VH: EVQLLESGGGLVQPGGSLRLSCAASGFIFSSHGMSWVRQAPGKGLEWVATISSGGTYTYYPDSVKGRFTISRDNSKNTLYLQMNSLKAEDTAMYYCARHDFDYDAAWFAYWGQGTLVTVSS
VL: EIVLTQSPATLSLSPGERATLSCRANSSVSYMYWYQQKPGQAPRPWIYLTSNRATGVPARFSGSGSGTDYTLTISSLEPEDFAVYYCQQWSSNPPTFGQGTKLEIK
notes: IgG4 (S241P), kappa
binds: [7] | [8] | [9]

B6: VH2/Vκ4 (antibody, IgG4, V domains shown)
VH: EVQLLESGGGLVQPGGSLRLSCAASGFIFSSHGMSWVRQAPGKGLEWVATISSGGTYTYYPDSVKGRFTISRDNSKNTLYLQMNSLRAEDTAMYYCARHDFDYDAAWFAYWGQGTLVTVSS
VL: EIVLTQSPATLSLSPGERATLSCRANSSVSYMYWYQQKPGQAPRPWIYLTSNRATGIPARFSGSGSGTDYTLTISSLEPEDFATYYCQQWSSNPPTFGQGTKLEIK
notes: IgG4 (S241P), kappa
binds: [7] | [8] | [9]

B7: VH4/Vκ1 (antibody, IgG4, V domains shown)
VH: EVQLLESGGGLVQPGGSLRLSCAASGFIFSSHGMSWVRQAPGKGLEWVSTISSGGTYTYYADSVKGRFTISRDNSKNTLYLQMNSLRAEDTAVYYCARHDFDYDAAWFAYWGQGTLVTVSS
VL: QIVLTQSPALLSLSPGERATMSCSANSSVSYMYWYRQKPGQAPKPWIYLTSNLASGVPARFSGSGSGTDYTLTISSLEAEDFATYYCQQWSSNPPTFGQGTKLEIK
notes: IgG4 (S241P), kappa
binds: [7] | [8] | [9]

B8: VH3/Vκ1 (antibody, IgG4, V domains shown)
VH: EVQLLESGGGLVQPGGSLRLSCAASGFIFSSHGMSWVRQAPGKGLEWVATISSGGTYTYYADSVKGRFTISRDNSKNTLYLQMNSLRAEDTAMYYCARHDFDYDAAWFAYWGQGTLVTVSS
VL: QIVLTQSPALLSLSPGERATMSCSANSSVSYMYWYRQKPGQAPKPWIYLTSNLASGVPARFSGSGSGTDYTLTISSLEAEDFATYYCQQWSSNPPTFGQGTKLEIK
notes: IgG4 (S241P), kappa
binds: [7] | [8] | [9]

B9: parent VH1/Vκ8 S29A scFv displayed on phage (scFv, not shown: large carriers)
scFv: EVQLLESGGGLVQPGGSLRLSCAASGFIFSSHGMSWVRQAPGKGLEWVATISSGGTYTYYPDSVKGRFTISRDNSKNTLYLQMNSLKAEDTAMYYCARHDFDYDAAWFAYWGQGTLVTVSSGGGGSGGGGSGGGGSEIVLTQSPATLSLSPGERATLSCRANSAVSYMYWYQQKPGQAPRPWIYLTSNRATGVPARFSGSGSGTDYTLTISSLEPEDFAVYYCQQWSSNPPTFGQGTKLEIK
binds: GST-CEACAM1 [10] | GST-CEACAM1 [11]

B10: chimeric antibody VH0/Vκ0 (antibody, IgG4, V domains shown)
VH: EVQLVESGGDLVKPGGSLKLACAASGFIFSSHGMSWVRQTPDKRLEWVATISSGGTYTYYPDSVKGRFTISRDNDKNTLYLQMNSLKSEDTAMYYCARHDFDYDAAWFAYWGQGTLVTVSS
VL: QIVLTQSPALMSASPGVKVTMTCSANSSVSYMYWYRQKPRSSPKPWIYLTSNLASGVPARFSGSGSGTSYSLTISSMEAEDAATYYCQQWSSNPPTFGSGTKLEIK
notes: IgG4 (S241P), kappa; also called VH0/Vκ0 (control); Chimeric VH0/Vκ0
binds: CEACAM-1 (Homo sapiens) | His-tagged CEACAM1 [2] | His-tagged CEACAM1 [3] | [7] | [8] | [9]

B11: CP08H03/Vκ8 S29A Fab (Fab, V domains shown)
VH: EVQLLESGGGLVQPGGSLRLSCAASGFIFSSHGMSWVRQAPGKGLEWVATISSGGTYTYYPDSVKGRFTISRDNSKNTLYLQMNSLKAEDTAMYYCARHDFDYFPYWFAHWGQGTLVTVSS
VL: EIVLTQSPATLSLSPGERATLSCRANSAVSYMYWYQQKPGQAPRPWIYLTSNRATGVPARFSGSGSGTDYTLTISSLEPEDFAVYYCQQWSSNPPTFGQGTKLEIK
binds: [12]
